Measurements published in paper PMC4721152.
These are yes or no findings as the source states them, for the method shown. Some results given as binding are weak or reduced against the parent protein; the word gives no strength.

Sequences of proteins named here, by UniProt entry; tags and fusion partners are left off. A change or cut given only in a name is not applied to a line headed by its entry. A line that says so, or that is headed by a name, gives the form on record, which may keep a tag or linker. Residues count along the entry.
UniProt P19338: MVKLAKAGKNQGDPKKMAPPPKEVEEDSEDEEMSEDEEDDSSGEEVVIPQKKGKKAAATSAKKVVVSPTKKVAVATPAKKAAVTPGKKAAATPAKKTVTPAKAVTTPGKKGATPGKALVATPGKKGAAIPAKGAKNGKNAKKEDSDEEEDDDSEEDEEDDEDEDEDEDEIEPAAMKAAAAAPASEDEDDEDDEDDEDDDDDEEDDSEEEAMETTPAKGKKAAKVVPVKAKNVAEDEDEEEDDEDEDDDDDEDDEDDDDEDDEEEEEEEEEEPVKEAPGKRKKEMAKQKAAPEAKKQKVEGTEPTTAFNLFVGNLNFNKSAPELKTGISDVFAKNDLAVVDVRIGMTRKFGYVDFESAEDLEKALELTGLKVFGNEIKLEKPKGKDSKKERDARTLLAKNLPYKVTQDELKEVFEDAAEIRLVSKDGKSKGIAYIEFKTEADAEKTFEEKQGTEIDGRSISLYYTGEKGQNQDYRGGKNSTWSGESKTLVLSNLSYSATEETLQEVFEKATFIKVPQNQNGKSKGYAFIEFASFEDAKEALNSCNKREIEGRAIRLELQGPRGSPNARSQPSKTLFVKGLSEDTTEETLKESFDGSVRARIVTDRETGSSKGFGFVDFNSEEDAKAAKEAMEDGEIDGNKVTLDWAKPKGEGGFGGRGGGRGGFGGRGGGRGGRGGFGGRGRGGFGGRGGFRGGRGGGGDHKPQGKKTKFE
mono-PEGylated endostatin (P39060, residues 1572-1754): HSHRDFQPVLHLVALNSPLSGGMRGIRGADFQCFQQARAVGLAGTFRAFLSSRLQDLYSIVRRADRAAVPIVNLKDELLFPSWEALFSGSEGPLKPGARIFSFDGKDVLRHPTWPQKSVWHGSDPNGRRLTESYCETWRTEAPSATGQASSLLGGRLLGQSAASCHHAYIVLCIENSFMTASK
zinc-binding protein-endostatin (P39060, form named): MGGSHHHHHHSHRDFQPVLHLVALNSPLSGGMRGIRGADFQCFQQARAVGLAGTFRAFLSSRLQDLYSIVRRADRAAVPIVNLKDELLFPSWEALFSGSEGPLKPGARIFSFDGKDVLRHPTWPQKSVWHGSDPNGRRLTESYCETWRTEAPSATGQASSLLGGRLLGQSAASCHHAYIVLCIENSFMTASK

Target: nucleolin-turbo green fluorescent protein (UniProt P19338)
Assay: pull-down; nucleolin-tGFP immunoprecipitated from transfected HMECs with anti-tGFP antibody and Protein G beads; the beads incubated with 0.5 μg ES variant for 1 h at 4 °C; washed with lysis buffer (150 mmol/L Tris, 50 mmol/L sodium chloride, 1% NP40, pH 7.4); bead-bound proteins detected by Western blotting; both purified

binding, binds:
endostatin (from UniProt P39060 1572-1754) (domain or fragment)
mono-PEGylated endostatin (from UniProt P39060 1572-1754) (domain or fragment)
mono-PEGylated zinc-binding protein-endostatin (from UniProt P39060 1572-1754) (domain or fragment)
zinc-binding protein-endostatin (from UniProt P39060 1572-1754) (domain or fragment)
